No constants are given. Whether binding was seen depends on the method and setting. Binding seen in cells or lysates may run through a third protein. These calls come from enrichment with a bait or labelling near it, and not all partners need be listed.
What follows are substances tested against GFP-WNK1 (N-terminal GFP knock-in at the endogenous WNK1 locus) (human (endogenous in HEK293)) (UniProt Q9H4A3) (assay: proximity labelling; GFP-WNK1 TurboID cells with or without 0.5 M sorbitol; streptavidin magnetic bead pull-down from 2 mg lysate; immunoblot (Fig. 1F)).

Amino acid sequences for entries named in this document (tags omitted).
UniProt Q9H4A3: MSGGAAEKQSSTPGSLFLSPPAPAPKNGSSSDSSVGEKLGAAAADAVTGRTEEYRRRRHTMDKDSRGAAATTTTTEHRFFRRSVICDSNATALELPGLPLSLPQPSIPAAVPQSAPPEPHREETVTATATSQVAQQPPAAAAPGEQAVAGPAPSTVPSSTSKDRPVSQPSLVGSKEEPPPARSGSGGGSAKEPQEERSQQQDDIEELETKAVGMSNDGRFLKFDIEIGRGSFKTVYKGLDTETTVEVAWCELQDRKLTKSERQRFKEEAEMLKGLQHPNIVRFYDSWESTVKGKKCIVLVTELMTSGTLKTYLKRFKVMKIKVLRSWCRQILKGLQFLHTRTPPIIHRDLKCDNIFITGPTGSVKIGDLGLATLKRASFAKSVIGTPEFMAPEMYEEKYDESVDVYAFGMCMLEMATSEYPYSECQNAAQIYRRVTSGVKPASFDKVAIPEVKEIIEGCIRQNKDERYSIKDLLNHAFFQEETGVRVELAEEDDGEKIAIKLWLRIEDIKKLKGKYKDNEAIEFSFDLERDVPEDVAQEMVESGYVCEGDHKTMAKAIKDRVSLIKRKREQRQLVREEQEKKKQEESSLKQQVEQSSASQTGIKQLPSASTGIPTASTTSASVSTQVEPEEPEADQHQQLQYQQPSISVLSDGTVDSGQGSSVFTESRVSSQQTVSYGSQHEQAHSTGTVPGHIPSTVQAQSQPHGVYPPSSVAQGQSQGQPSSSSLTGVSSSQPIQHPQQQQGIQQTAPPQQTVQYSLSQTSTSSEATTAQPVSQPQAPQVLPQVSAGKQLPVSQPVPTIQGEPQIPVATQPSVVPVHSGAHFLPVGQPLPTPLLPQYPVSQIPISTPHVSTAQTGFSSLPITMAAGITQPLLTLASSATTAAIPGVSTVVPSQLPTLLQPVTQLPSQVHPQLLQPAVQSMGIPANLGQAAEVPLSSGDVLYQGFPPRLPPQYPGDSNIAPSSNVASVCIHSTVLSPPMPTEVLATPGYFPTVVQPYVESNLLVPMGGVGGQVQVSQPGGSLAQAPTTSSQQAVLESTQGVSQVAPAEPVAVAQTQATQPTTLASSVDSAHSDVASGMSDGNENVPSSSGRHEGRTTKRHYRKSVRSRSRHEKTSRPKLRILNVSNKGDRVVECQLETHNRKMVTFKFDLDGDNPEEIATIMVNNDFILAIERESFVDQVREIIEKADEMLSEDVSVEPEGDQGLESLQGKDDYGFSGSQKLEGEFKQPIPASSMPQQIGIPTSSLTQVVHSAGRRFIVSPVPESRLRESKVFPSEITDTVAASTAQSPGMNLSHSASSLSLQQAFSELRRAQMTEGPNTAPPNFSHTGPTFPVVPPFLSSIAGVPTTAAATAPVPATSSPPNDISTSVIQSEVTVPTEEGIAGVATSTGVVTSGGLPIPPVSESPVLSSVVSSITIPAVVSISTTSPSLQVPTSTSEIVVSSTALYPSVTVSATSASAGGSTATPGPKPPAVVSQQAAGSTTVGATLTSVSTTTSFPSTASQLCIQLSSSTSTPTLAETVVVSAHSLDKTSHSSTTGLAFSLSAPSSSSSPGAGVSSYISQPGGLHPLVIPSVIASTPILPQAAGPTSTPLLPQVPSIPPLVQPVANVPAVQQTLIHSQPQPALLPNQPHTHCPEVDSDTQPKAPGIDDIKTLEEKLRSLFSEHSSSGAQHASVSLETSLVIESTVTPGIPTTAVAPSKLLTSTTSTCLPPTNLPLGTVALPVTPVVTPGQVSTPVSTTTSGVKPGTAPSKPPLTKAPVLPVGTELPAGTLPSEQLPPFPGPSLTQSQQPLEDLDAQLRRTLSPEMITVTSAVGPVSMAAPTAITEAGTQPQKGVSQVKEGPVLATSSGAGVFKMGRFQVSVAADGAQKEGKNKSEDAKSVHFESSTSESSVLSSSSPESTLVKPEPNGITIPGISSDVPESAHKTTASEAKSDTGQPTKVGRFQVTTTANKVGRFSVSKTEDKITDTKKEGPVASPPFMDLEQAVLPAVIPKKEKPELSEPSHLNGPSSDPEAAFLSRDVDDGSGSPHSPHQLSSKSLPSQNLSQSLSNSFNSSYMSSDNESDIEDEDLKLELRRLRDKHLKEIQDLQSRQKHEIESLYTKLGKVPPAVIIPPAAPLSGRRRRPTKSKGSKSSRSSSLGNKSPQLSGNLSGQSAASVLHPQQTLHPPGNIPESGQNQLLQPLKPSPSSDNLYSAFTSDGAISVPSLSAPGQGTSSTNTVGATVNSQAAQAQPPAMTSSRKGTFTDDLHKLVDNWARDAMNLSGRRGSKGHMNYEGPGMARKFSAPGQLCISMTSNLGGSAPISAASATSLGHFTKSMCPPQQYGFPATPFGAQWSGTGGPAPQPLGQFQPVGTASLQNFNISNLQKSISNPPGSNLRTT
UniProt Q9UHY1: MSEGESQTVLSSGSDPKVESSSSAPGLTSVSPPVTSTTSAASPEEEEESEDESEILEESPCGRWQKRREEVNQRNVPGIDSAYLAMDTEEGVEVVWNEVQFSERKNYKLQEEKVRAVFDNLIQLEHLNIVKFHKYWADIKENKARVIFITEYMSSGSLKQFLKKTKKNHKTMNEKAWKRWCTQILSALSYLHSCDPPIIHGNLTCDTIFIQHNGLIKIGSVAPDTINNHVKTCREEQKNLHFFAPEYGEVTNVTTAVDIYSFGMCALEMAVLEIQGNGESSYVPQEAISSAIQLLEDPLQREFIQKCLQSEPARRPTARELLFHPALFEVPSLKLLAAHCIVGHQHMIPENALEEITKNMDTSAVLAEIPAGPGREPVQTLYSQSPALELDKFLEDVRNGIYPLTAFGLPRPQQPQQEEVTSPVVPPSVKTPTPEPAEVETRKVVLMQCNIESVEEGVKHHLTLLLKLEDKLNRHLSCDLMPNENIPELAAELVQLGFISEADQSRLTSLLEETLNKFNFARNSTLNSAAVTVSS
UniProt Q15370: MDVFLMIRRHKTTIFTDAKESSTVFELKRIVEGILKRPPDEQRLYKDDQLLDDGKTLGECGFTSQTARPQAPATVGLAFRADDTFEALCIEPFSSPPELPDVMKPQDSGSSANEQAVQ
UniProt O00459: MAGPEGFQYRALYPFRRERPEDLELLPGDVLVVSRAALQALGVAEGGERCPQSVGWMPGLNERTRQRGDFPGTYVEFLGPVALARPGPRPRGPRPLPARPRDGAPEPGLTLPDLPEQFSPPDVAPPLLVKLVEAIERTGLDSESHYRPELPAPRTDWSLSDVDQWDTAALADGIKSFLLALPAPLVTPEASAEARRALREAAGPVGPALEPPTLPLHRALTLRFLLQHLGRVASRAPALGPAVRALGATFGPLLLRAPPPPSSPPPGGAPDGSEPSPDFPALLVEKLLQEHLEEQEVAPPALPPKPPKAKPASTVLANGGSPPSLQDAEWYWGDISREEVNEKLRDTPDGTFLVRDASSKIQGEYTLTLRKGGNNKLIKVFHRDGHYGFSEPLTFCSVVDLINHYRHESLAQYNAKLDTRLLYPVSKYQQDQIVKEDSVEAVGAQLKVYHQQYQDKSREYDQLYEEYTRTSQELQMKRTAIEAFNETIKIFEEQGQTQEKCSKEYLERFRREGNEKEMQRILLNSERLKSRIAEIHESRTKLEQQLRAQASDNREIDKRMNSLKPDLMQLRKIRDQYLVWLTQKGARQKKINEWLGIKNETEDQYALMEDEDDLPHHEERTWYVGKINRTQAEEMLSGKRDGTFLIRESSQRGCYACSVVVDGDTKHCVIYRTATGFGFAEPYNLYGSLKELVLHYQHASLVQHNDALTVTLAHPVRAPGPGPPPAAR
UniProt Q9UKB1: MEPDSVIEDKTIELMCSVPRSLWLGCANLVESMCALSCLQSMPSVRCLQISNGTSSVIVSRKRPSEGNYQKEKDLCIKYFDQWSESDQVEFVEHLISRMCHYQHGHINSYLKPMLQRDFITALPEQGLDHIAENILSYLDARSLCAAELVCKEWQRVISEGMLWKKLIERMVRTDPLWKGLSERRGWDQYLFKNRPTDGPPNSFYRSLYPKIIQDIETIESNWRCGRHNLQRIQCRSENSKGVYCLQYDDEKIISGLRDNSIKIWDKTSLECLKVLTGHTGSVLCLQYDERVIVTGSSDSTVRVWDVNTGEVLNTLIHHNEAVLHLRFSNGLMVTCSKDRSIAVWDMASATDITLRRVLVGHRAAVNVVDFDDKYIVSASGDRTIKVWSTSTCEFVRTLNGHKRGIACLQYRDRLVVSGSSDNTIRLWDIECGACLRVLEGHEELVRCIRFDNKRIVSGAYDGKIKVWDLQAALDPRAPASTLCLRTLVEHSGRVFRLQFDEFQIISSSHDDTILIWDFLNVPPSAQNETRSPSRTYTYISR
UniProt P27986: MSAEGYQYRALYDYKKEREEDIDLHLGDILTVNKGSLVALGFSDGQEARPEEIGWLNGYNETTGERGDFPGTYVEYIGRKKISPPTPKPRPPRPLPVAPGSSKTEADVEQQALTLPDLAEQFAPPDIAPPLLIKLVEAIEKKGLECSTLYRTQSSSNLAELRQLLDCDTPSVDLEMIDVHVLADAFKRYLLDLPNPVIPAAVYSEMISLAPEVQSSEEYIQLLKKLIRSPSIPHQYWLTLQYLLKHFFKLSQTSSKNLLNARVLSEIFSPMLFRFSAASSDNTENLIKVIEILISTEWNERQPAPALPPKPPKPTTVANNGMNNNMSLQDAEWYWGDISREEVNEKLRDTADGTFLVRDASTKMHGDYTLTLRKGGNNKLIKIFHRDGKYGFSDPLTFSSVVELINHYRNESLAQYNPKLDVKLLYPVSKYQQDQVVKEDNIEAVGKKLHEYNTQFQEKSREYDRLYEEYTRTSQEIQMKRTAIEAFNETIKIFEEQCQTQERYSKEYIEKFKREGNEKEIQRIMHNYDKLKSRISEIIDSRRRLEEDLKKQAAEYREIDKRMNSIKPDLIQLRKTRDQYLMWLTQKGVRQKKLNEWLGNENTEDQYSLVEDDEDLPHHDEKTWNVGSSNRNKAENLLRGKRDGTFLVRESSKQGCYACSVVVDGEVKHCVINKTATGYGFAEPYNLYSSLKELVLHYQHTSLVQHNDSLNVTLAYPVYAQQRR
UniProt P28370: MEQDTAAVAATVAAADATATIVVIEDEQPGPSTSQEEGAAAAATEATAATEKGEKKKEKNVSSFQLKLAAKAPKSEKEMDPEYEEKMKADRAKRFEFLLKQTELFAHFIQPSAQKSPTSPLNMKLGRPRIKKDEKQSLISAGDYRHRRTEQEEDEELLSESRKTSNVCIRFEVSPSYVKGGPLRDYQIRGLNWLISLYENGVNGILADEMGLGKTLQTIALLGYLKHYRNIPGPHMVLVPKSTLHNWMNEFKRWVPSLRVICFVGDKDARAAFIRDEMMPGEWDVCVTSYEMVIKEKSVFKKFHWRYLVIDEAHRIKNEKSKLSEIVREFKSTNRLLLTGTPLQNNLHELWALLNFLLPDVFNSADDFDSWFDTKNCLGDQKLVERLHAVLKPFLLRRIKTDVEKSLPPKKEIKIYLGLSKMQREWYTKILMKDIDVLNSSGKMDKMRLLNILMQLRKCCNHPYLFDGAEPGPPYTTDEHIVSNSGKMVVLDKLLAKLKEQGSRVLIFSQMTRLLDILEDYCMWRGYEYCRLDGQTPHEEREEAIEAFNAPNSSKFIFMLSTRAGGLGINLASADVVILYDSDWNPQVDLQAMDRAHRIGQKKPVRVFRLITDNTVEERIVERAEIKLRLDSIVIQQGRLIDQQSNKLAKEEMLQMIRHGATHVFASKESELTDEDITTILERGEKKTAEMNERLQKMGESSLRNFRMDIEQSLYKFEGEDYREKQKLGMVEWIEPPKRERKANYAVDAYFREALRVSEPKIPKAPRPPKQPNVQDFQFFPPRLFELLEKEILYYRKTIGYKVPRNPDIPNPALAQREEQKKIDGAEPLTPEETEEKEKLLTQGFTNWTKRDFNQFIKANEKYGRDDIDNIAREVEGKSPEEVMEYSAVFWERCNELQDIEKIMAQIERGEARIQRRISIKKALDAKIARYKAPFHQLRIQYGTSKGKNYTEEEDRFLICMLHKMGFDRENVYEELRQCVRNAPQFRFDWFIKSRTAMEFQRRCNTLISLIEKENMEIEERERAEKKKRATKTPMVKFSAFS

binding | Substance
binds | nuclear receptor binding protein 1 (NRBP1), endogenous (from UniProt Q9UHY1 1-535)

Each substance was assayed against GFP-WNK1 (N-terminal GFP knock-in at the endogenous WNK1 locus) (human (endogenous in HEK293)) (UniProt Q9H4A3) (assay: proximity labelling; GFP-WNK1 KI and WT HEK293 cells expressing Flag-TurboID-aGFP6M; 0.5 mM biotin with or without 0.5 M sorbitol for 5 min; streptavidin enrichment from lysate; DIA mass spectrometry).

binding | Substance
binds | ELOB, endogenous (from UniProt Q15370 1-118)
binds | WNK3, endogenous (from UniProt Q9BYP7 1-1800)
binds | nuclear receptor binding protein 1 (NRBP1), endogenous (from UniProt Q9UHY1 1-535)
binds | WNK2, endogenous (from UniProt Q9Y3S1 1-2297)
binds | oxidative stress responsive 1 kinase (OXSR1), endogenous (from UniProt O95747 1-527)

Each substance was assayed against GFP-NRBP1 (N-terminal GFP knock-in at the endogenous NRBP1 locus) (human (endogenous in HEK293)) (UniProt Q9UHY1) (assay: affinity purification with mass spectrometry; GFP-NRBP1 KI and WT HEK293 cells with or without 0.5 M sorbitol for 30 min; lysis in 20 mM Hepes pH 7.5, 150 mM NaCl, 0.5% NP-40; GFP-Trap magnetic beads, 4°C, 2 hours; DIA mass spectrometry).

binding | Substance
binds | ELOB, endogenous (from UniProt Q15370 1-118)
binds | PIK3R2, endogenous (from UniProt O00459 1-728)
binds | SHKBP1, endogenous (from UniProt Q8TBC3 1-707)
binds | LOXL1, endogenous (from UniProt Q08397)
binds | WNK3, endogenous (from UniProt Q9BYP7 1-1800)
binds | βTrCP2/FBXW1B, endogenous (from UniProt Q9UKB1 1-542)
binds | WNK1, endogenous (from UniProt Q9H4A3 1-2382)
binds | WNK2, endogenous (from UniProt Q9Y3S1 1-2297)
binds | MYO5B, endogenous (from UniProt Q9ULV0 1-1848)
binds | βTrCP1/FBXW1A, endogenous (from UniProt Q9Y297 1-605)

The remaining lines, values behind:

Substance | binding
PIK3R1, endogenous (from UniProt P27986 1-724) | binds
PIK3R3, endogenous (from UniProt Q92569 1-461) | binds
FAM117B, endogenous (from UniProt Q6P1L5 1-589) | binds
SMARCA1, endogenous (from UniProt P28370 1-1042) | binds
PSME3, endogenous (from UniProt P61289 1-254) | binds
TUBB4A, endogenous (from UniProt P04350 1-444) | binds
HOXC11, endogenous (from UniProt O43248 1-304) | binds
KCTD3, endogenous (from UniProt Q9Y597 1-815) | binds

Source: PMC12266122
